Source: article PMC10105761
Results are given in words; binding and its absence hold for the method and conditions named. Binding seen in cells or lysates may run through a third protein. Some results given as binding are weak or reduced against the parent protein; the word gives no strength. Where a sequence is shown, tags or fusion partners need not be part of it.

Protein sequences, listed by entry. Tags and fused reporters are not part of them.
UniProt P69783: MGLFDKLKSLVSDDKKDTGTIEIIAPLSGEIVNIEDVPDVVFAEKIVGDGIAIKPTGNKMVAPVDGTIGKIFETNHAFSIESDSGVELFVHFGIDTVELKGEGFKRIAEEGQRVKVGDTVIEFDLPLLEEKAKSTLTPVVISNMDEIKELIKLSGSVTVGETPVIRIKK

Target: T1, galactose transporter MglA fused to YFP (E. coli) (UniProt P0AAG8)
T1 sequence: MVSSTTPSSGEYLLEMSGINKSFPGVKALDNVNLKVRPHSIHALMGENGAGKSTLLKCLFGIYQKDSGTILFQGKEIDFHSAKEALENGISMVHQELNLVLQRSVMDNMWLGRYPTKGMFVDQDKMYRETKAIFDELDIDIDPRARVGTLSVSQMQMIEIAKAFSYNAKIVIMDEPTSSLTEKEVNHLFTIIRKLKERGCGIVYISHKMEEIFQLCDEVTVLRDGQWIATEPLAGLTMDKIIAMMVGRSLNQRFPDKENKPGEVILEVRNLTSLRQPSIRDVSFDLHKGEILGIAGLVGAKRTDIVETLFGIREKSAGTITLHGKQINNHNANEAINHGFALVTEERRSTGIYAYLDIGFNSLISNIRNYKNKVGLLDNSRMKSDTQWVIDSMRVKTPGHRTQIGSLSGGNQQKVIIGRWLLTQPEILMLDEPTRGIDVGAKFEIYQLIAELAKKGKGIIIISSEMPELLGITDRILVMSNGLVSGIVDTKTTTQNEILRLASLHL
Assay: FRET or BRET; live E. coli MG1655 cells co-expressing EIIA^Glc-CFP and MglA-YFP, attached to poly-lysine coated slides in a flow-through chamber; YFP/CFP ratio by microscopy, population and single cells; equilibrated in M9 buffer, stimulated with 100 μM glucose (also pyruvate); 22 °C

Substance: EIIA^Glc fused to CFP (from UniProt P69783 1-169)
- binding: binds
